Results on one molecule are retold here after the supplement of paper PMC8728848.

Holding throughout (assay): glycan array binding signal (z-score within array); higher = stronger binding
Holding throughout (conditions): glycan notation: IUPAC condensed, linker removed

One experiment addresses Fuc(a1-2)Gal(b1-4)Glc. A digest of the protocol:
(§1)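 From the Consortium for Functional Glycomics database, 3228 arrays were curated, keeping only those whose protein sequence was available. Binding is given as a within-array Z-score averaged across arrays sharing a protein sequence and across linkers. Negative Z-scores can be read as non-binding.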

For a further experiment, the target named is Fuc(a1-2)Gal(b1-4)Glc6S. A digest of the protocol: as §1
The next experiment concerns the target Fuc(a1-2)Gal(b1-4)GlcNAc. A digest of the protocol: as §1
The target in experiment [1] is Fuc(a1-2)Gal(b1-4)GlcNAc(b1-2)Man. A digest of the protocol: as §1
Experiment [2] concerns the target Fuc(a1-2)Gal(b1-4)GlcNAc(b1-2)Man(a1-3)[Fuc(a1-2)Gal(b1-4)GlcNAc(b1-2)Man(a1-6)]Man(b1-4)GlcNAc(b1-4)GlcNAc. In outline: as §1
Experiment [3] has as its target Fuc(a1-2)Gal(b1-4)GlcNAc(b1-2)Man(a1-3)[Fuc(a1-2)Gal(b1-4)GlcNAc(b1-2)Man(a1-6)]Man(b1-4)GlcNAc(b1-4)[Fuc(a1-6)]GlcNAc. A digest of the protocol: as §1
Experiment [4] addresses Fuc(a1-2)Gal(b1-4)GlcNAc(b1-2)[Fuc(a1-2)Gal(b1-4)GlcNAc(b1-4)]Man(a1-3)[Fuc(a1-2)Gal(b1-4)GlcNAc(b1-2)Man(a1-6)]Man(b1-4)GlcNAc(b1-4)GlcNAc. A digest of the protocol: as §1
Experiment [5] addresses Fuc(a1-2)Gal(b1-4)GlcNAc(b1-3)Gal(b1-4)GlcNAc. In outline: as §1
Experiment [6] deals with Fuc(a1-2)Gal(b1-4)GlcNAc(b1-3)Gal(b1-4)GlcNAc(b1-2)Man(a1-3)[Fuc(a1-2)Gal(b1-4)GlcNAc(b1-3)Gal(b1-4)GlcNAc(b1-2)Man(a1-6)]Man(b1-4)GlcNAc(b1-4)GlcNAc. In outline:
as §1

The target in experiment [7] is Fuc(a1-2)Gal(b1-4)GlcNAc(b1-3)Gal(b1-4)GlcNAc(b1-3)Gal(b1-4)GlcNAc. A digest of the protocol:
as §1

In experiment [8] the target is Fuc(a1-2)Gal(b1-4)GlcNAc(b1-3)GalNAc. A digest of the protocol:
as §1

Experiment [9] has as its target Fuc(a1-2)Gal(b1-4)GlcNAc(b1-3)[Fuc(a1-2)Gal(b1-4)GlcNAc(b1-6)]GalNAc. In outline:
as §1

The target of experiment [10] is Fuc(a1-2)Gal(b1-4)GlcNAc(b1-3)[Fuc(a1-3)[Gal(b1-4)]GlcNAc(b1-6)]Gal(b1-4)Glc. In outline: as §1
The target in experiment [11] is Fuc(a1-2)Gal(b1-4)GlcNAc(b1-6)GalNAc. A digest of the protocol:
as §1

Experiment [12] concerns the target Fuc(a1-2)Gal(b1-4)GlcNAc6S. A digest of the protocol: as §1
Experiment [13] concerns the target Fuc(a1-2)Gal(b1-4)[Fuc(a1-3)]GlcNAc. A digest of the protocol: as §1
Experiment [14] addresses Fuc(a1-2)Gal(b1-4)[Fuc(a1-3)]GlcNAc(b1-2)Man(a1-3)[Fuc(a1-2)Gal(b1-4)[Fuc(a1-3)]GlcNAc(b1-2)Man(a1-6)]Man(b1-4)GlcNAc(b1-4)[Fuc(a1-6)]GlcNAc. A digest of the protocol: as §1
Experiment [15] concerns the target Fuc(a1-2)Gal(b1-4)[Fuc(a1-3)]GlcNAc(b1-2)[Fuc(a1-2)Gal(b1-4)[Fuc(a1-3)]GlcNAc(b1-4)]Man(a1-3)[Fuc(a1-2)Gal(b1-4)[Fuc(a1-3)]GlcNAc(b1-2)Man(a1-6)]Man(b1-4)GlcNAc(b1-4)GlcNAc. In outline: as §1
Experiment [16] deals with Fuc(a1-2)Gal(b1-4)[Fuc(a1-3)]GlcNAc(b1-3)Gal(b1-4)[Fuc(a1-3)]GlcNAc. A digest of the protocol: as §1
Experiment [17] addresses Fuc(a1-2)Gal(b1-4)[Fuc(a1-3)]GlcNAc(b1-3)Gal(b1-4)[Fuc(a1-3)]GlcNAc(b1-3)Gal(b1-4)[Fuc(a1-3)]GlcNAc. In outline: as §1
Experiment [18] addresses Fuc(a1-2)Gal(b1-4)[Fuc(a1-3)]GlcNAc(b1-3)GalNAc. A digest of the protocol: as §1
Experiment [19] addresses Fuc(a1-2)Gal(b1-4)[Fuc(a1-3)]GlcNAc(b1-3)[Neu5Ac(a2-6)Gal(b1-4)GlcNAc(b1-6)]Gal(b1-4)Glc. In outline: as §1
Experiment [20] has as its target Fuc(a1-2)Gal3S(b1-4)GlcNAc. In outline: as §1

Some of the results follow.

B1: Actd5 (Actinidia), P84527 (protein)
chain: ISSCNGPCRDLNDCDGQLICIKGKCNDDPQVGTHICRGTTHSHQPGGCKPSGTLTCRGKSYPTYDCSPPVTSSTPAKLTNNDFSEGGDDGGPSECDESYHNNNERIVALSTGWYNGGSRCGKMIRITASNGKSVSAKVVDECDSRHGCDKEHAGQPPCRNNIVDGSNAVWSALGLDKNVGVVDITWSMA
Regarding B1, the “glycan array binding signal (z-score)” value with Fuc(a1-2)Gal(b1-4)Glc is -1.21; with Fuc(a1-2)Gal(b1-4)Glc6S, 0.27; with Fuc(a1-2)Gal(b1-4)GlcNAc it was -0.749; in experiment [1] it was 0.494; in [2] it was 0.283; in [3], 1.78. The “glycan array binding signal (z-score)” value in [4] is 0.52; in [5], -0.259; in experiment [6], 1.65; in experiment [7], 0.175; in experiment [8] it was -0.145; in experiment [9] it was -0.922. The “glycan array binding signal (z-score)” value in experiment [10] is 0.273; in experiment [11] it was -0.774; in experiment [12], -0.666; in experiment [13], -0.268; in experiment [14] it was 1.25; in [15], 2.12. For the same molecule, the “glycan array binding signal (z-score)” value in [16] is -0.124; in experiment [17], 0.593; in experiment [18] it was 0.867; in [19], -0.626; in experiment [20], -0.723.
